Laboratory results as given in the supplement of paper PMC10735217.
Several values for one entry are separate records, joined by “and”; a condition that tells them apart may be missing. Equal entries are not always repeated. Structures can show the parent of a compound that is named as a salt. The list shows a part of the results. Single values are uncertain here, since repeats match poorly.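 In a drug-repurposing library screen, luminescence reads luciferase driven by eight TEAD-binding elements, stably integrated into human kidney-derived cells. Compounds scoring over five robust Z scores above the plate mean are called hits.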

Test system: HEK293A TEAD-LUC reporter
Test: TEAD-luciferase reporter activity (YAP activation), robust Z score vs plate; higher = stronger YAP/TEAD activation
Conditions: 24 h

Structure (SMILES)	TEAD-luciferase reporter activity (compound concentration: 200 nM)	TEAD-luciferase reporter activity (compound concentration: 2 uM)	TEAD-luciferase reporter activity (compound concentration: 10 uM)
Cc1cc(C)c2c3ccccc3n(Cc3ccc([C@@H](C(=O)N[C@@H](CO)c4ccccc4)C4CCCC4)cc3)c2n1 [Implitapide]	inactive: 0.83	inactive: -1.52	inactive: 0.594
CCC[n+]1cc(Br)cc(C(=O)N(CCC(=O)NCCOC(=O)N2CCc3ccccc3C2)c2ccccc2)c1 [TCV-309 (chloride)]	inactive: -0.366	inactive: -0.404	inactive: 2.61
O=C(NO)c1cnc(N2C[C@@H]3[C@H](C2)[C@H]3NCc2ccc3cc(F)ccc3n2)nc1	active: 10.9	active: 42.5	active: 67.8
Cc1c(-c2ccccc2)oc2c(C(=O)OCCN3CCCCC3)cccc2c1=O [flavoxate]	inactive: -2.52	inactive: -0.698	inactive: 2.1
CN(C)CC(=O)N1Cc2ccccc2CC2(CCCCN2Cc2ccccc2)C1 (stereo not drawn)	inactive: -0.605		inactive: -1.44
CCC(Oc1cccc(CN(CCCOc2ccc(OC)cc2)c2nc3ccccc3o2)c1)C(=O)O (stereo not drawn) [Pemafibrate]	inactive: -1.32	inactive: -0.0856	inactive: -0.695
N=C(N)c1ccc(C(=O)NCCC(=O)N[C@@H](CC(=O)O)C(=O)N[C@@H](Cc2ccccc2)C(=O)O)cc1	inactive: -1.14	inactive: -0.698	inactive: -0.524
COC(=O)c1ccccc1-c1c2ccc(=N)c(Br)c-2oc2c(Br)c(N)ccc12	inactive: -0.309	inactive: -0.857	inactive: 1.88
COc1ccc(C(=O)Nc2c(Cl)c[n+]([O-])cc2Cl)cc1OC1CC[C@@H](O)C1 (stereo partly drawn)	inactive: -1.03	inactive: 0.124	inactive: 0.547
C[C@H]1COc2c(N3CC(N)C4(CCC4)C3)c(F)cc3c(=O)c(C(=O)O)cn1c23 (stereo partly drawn)	inactive: -0.241	inactive: -0.0488	inactive: -0.593
CCCCC(=O)OC1CCC2C3CCc4cc(O)ccc4C3CCC12C (stereo not drawn) [Estradiol valerate]	inactive: 4.77	inactive: -0.244	inactive: 0.614
Cc1ccnn1-c1cc(CN2CC[C@]3(C=CC(=O)N3c3cccc(F)c3)C[C@@H]2C)ccc1O	inactive: 0.598	inactive: 0.0516	inactive: -0.184
O=C([O][Al]([OH])[OH])[C@H](O)[C@@H](O)[C@H](O)[C@H](O)CO [alglutamol]	inactive: 0.177	inactive: -1.16	inactive: -1.13
COC(=O)Nc1nc2cc(C3(O)c4ccccc4C(=O)N3c3cc(Cl)ccc3C)ccc2[nH]1 (stereo not drawn)	inactive: -1.39 and inactive: -1.45	inactive: 0.0115 and inactive: -0.565	inactive: -0.77 and inactive: -0.41
OC1CCN(Cc2cccc(Nc3ncnc4ccccc34)c2)CC1	inactive: -0.75	inactive: 2.13	inactive: -0.81
Nc1nc(=O)n([C@H]2C[C@H](O)[C@@H](CO)O2)cc1Cl [Cytochlor]	inactive: 1.43	inactive: 0.765	inactive: 2.82
O=c1[nH]nc(O)c2c1cc1cc(Br)ccc1[n+]2[O-]	inactive: -0.946	inactive: -0.89	inactive: -1.62
CCN(CC)CC(=O)Nc1c(C)cccc1C [lidocaine 4 %]		inactive: -0.621	
CCN(CC)CC(=O)Nc1c(C)cccc1C	inactive: 0.602		active: 6.61
CC(C)=CCOc1cc(NC(=O)c2cscn2)ccc1Cl	inactive: 0.0965	inactive: 0.0504	inactive: 1.07
Nc1ccn(C[C@@H](CO)OCP(=O)(O)O)c(=O)n1 [cidofovir gel]		inactive: 1.54	
Nc1ccn(C[C@@H](CO)OCP(=O)(O)O)c(=O)n1 [cidofovir hydrate]	inactive: -3.01		inactive: 0.329
CCCCCCCCCCCC(=O)OCC(O)[C@H]1OC[C@H](O)[C@H]1O (stereo partly drawn)	inactive: 1.1	inactive: -1.31	inactive: 2.2
CNC1CCCN(c2c(F)cc3c(=O)c(C(=O)O)cn(C4CC4)c3c2OC)C1 (stereo not drawn) [balofloxacin]	inactive: 0.28	inactive: -0.0846	inactive: -0.911
NS(=O)(=O)c1cc2c(cc1Cl)NC(Cc1ccc(F)cc1)NS2(=O)=O (stereo not drawn)	inactive: -0.421	inactive: -1.32	inactive: -0.565
C=C(NNC(=O)c1ccncc1)c1ccco1	inactive: 0.228	inactive: -1.69	inactive: 2.31
CN1CCN(c2ccc(-c3cccc(CN4CCOCC4)c3)cc2NC(=O)c2c[nH]c(=O)cc2C(F)(F)F)CC1	inactive: -0.805	inactive: 0.716	inactive: 0.998

Structure (SMILES)	TEAD-luciferase reporter activity (compound concentration: 200 nM)	TEAD-luciferase reporter activity (compound concentration: 2 uM)	TEAD-luciferase reporter activity (compound concentration: 10 uM)
CCCCC1CCN(CCCC(=O)c2ccccc2C)CC1	inactive: -1.47		inactive: -1.86
CCN(CC)CCn1c(-c2ccccc2)noc1=N	inactive: -0.00721	inactive: 2.14	inactive: -1.22
O=C(O)CC(O)CC(O)/C=C/c1c(C2CC2)nc2ccccc2c1-c1ccc(F)cc1 (stereo not drawn) [pitavastatin calcium, Kowa]	inactive: -1.03		inactive: -0.404
O=C(O)CC(O)CC(O)/C=C/c1c(C2CC2)nc2ccccc2c1-c1ccc(F)cc1 (stereo not drawn) [pitavastatin calcium]		inactive: -2.03	
O=[N+]([O-])c1cncn1CCN1CCOCC1 [nimorazole]	inactive: -0.0253	inactive: -1.91	inactive: 0.602
COc1ccccc1C(=O)NC1CCN(C(=O)c2ccc(-c3ccccc3OC)cc2)CC1	inactive: -2.72		inactive: 2.4
CCOC(=O)C(N)/C=C(\C)CP(=O)(O)O (stereo not drawn)	inactive: -0.221	inactive: 0.693	inactive: 0.474
C#CC1(OCC(O)CN2CCN(c3ccccc3OC)CC2)CCCCC1 (stereo not drawn)	inactive: 0.74	inactive: 0.989	inactive: 3.39
NCC(=O)CCC(=O)OCc1ccccc1 [Aminolevulinic acid benzyl ester]	inactive: 0.702	inactive: -0.161	inactive: 2.86
CCCCCn1c(=O)c2[nH]c(Cl)nc2n(CCCCC)c1=O	inactive: -0.669	inactive: 3.36	inactive: -0.0539
Cc1cccc(C)c1NCCNCC(O)COc1cccc2[nH]ncc12 (stereo not drawn) [neraminol]	inactive: -0.164	inactive: -0.157	inactive: 1.56
O=C1O[C@]2(CC[C@@H](C(=O)Nc3ccn(-c4ccccc4F)n3)CC2)c2cnccc21	inactive: 0.287	inactive: 0.235	inactive: -0.261
CN(CC1CCCCC1)C1CCc2ccccc21 (stereo not drawn)	inactive: -0.219		inactive: 0.927
CC(=O)CC(c1ccc([N+](=O)[O-])cc1)c1c(O)c2ccccc2oc1=O (stereo not drawn) [Acenocoumarol]	inactive: -0.583	inactive: -2.2	inactive: 1.67
CN/C(=N\C#N)NCCSCc1nc[nH]c1C [cimetidine]	inactive: -0.83	inactive: 2	inactive: 1.02
CCN[C@@H]1C[C@H](N)C(O[C@H]2O[C@H](CN)CCC2N)[C@H](O)[C@H]1O[C@H]1OC[C@](C)(O)[C@H](NC)[C@H]1O (stereo partly drawn) [Etimicin Sulfate]	inactive: -1.1	inactive: -0.497	inactive: -0.355
CC[C@@]1(O)C(=O)OCc2c1cc1n(c2=O)Cc2c-1nc1ccccc1c2CCNC(C)C [Belotecan Hydrochloride]	inactive: -0.879	inactive: -2.04	inactive: -1.88
CC1=C(C(=O)O)N2C(=O)C(NC(=O)C(N)c3ccccc3)C2SC1 (stereo not drawn) [cefalexin HCl monohydrate]	inactive: -0.757	inactive: 0.515	inactive: -1.18
CO[C@H]1C=CO[C@@]2(C)Oc3c(C)c(O)c4c(O)c(c(/C=N/N5CCN(C6CCCC6)CC5)c(O)c4c3C2=O)NC(=O)/C(C)=C\C=C/[C@H](C)[C@H](O)[C@@H](C)[C@@H](O)[C@@H](C)[C@H](OC(C)=O)[C@@H]1C [Rifapentine]		inactive: 0.141	
CO[C@H]1C=CO[C@@]2(C)Oc3c(C)c(O)c4c(O)c(c(/C=N/N5CCN(C6CCCC6)CC5)c(O)c4c3C2=O)NC(=O)/C(C)=C\C=C/[C@H](C)[C@H](O)[C@@H](C)[C@@H](O)[C@@H](C)[C@H](OC(C)=O)[C@@H]1C [Rifapentine (Priftin)]	inactive: 0.695		inactive: 2.04
O=C(/C=C/c1ccc(F)cc1)NC[C@@H]1CN(c2ccc(N3CCOCC3)c(F)c2)C(=O)O1	inactive: -0.213	inactive: -0.496	inactive: 2.32
CC(C)[C@H](NC(=O)NCC(C)(C)O)C(=O)N1CC[C@](O)(c2ccc(Cl)cc2)C(C)(C)C1	inactive: -0.134	inactive: 0.463	inactive: -0.274
CCOCCn1c(C2CCN(CCc3ccc(C(C)(C)C)cc3)CC2)nc2ccccc21	inactive: 0.289	inactive: 2.03	inactive: 2.22
COCCNCCc1cccc(Nc2ncc3c(n2)-c2ccccc2[C@@H](c2ccccc2F)C3)c1	inactive: -1.68	inactive: 0.98	inactive: -0.0864
CNC(=O)c1ccc2ccn(C3CCN(CCc4c(OC)ccc5c4OC(C)(C)CC5=O)CC3)c2c1	inactive: 0.371	inactive: -0.755	inactive: 3.27
COc1cc(OCc2nc(N3CCOCC3)sc2C)c2cc(-c3cn4nc(OC)sc4n3)oc2c1	inactive: -0.515	inactive: -0.813	inactive: 2.78

Given field by field: part of the list above.
CCOC(=O)C(N)/C=C(\C)CP(=O)(O)O (stereo not drawn)
  TEAD-luciferase reporter activity (compound concentration: 200 nM): inactive: -0.221
  TEAD-luciferase reporter activity (compound concentration: 2 uM): inactive: 0.693
  TEAD-luciferase reporter activity (compound concentration: 10 uM): inactive: 0.474
C#CC1(OCC(O)CN2CCN(c3ccccc3OC)CC2)CCCCC1 (stereo not drawn)
  TEAD-luciferase reporter activity (compound concentration: 200 nM): inactive: 0.74
  TEAD-luciferase reporter activity (compound concentration: 2 uM): inactive: 0.989
  TEAD-luciferase reporter activity (compound concentration: 10 uM): inactive: 3.39
